This assay concerns the target annexin A2 (human) (UniProt P07355). Put plainly: GST pull-down from NCI-H630 lysate (HepG2 lysate as control), LC-MS/MS; MASCOT score 994.

Sequences of proteins named here, by UniProt entry; tags and fusion partners are left off. Residues count along the entry.
UniProt P07355, residues 2-339: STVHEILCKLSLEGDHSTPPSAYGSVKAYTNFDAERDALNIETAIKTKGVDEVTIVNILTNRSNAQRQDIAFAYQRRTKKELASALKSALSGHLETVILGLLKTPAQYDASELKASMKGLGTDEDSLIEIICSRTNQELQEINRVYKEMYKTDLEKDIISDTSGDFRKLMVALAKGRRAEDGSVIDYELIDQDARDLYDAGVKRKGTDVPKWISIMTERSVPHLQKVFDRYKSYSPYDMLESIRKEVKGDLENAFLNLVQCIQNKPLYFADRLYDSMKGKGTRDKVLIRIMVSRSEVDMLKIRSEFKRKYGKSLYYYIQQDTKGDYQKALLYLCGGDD

These are yes or no findings as the source states them, for the method shown. Binding seen in cells or lysates may run through a third protein. Some entries that bind do so weakly or less than the wild type. Where a sequence is shown, tags or fusion partners need not be part of it.

For CGIYRLRSC (peptide, not shown: a dimerising Fc or GST) […-GST], the binding entry is on record as “binds”.

(Values after patent EP2703005A1, “Inhibitors of alpha6 Integrin/E-Cadherin Complex” (Università Degli Studi Di Torino, priority 2012, dated 2014).)
